Our source for the binding values is PMC5076501.

By UniProt entry, the sequences of proteins in these tests, tags left out.
UniProt P0DMV8: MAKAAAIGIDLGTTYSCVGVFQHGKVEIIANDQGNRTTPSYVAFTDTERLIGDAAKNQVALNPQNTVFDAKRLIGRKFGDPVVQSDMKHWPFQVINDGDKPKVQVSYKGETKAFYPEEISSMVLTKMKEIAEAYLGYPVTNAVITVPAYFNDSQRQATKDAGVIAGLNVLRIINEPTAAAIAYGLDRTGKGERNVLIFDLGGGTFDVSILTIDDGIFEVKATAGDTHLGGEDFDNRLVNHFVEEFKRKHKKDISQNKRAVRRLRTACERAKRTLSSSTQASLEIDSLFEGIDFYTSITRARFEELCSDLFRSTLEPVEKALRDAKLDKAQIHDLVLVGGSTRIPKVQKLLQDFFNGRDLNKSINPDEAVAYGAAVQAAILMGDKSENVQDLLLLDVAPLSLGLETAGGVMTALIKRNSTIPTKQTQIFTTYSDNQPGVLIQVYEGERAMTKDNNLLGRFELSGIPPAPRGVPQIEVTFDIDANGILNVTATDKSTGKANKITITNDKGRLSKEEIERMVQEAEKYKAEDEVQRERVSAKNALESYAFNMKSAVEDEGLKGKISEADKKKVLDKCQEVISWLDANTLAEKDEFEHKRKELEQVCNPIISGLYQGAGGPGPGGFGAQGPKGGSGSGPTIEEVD

Assay [1] deals with YFP-tagged dDAT-G108Q (Drosophila melanogaster) (UniProt Q7K4Y6). As to the kind of experiment: co-IP; tagged DAT precipitated with anti-GFP antibody and protein A-Sepharose at 4 °C from detergent lysates (50 mM Tris-HCl pH 8.0, 150 mM NaCl, 1% dodecyl maltoside, 1 mM EDTA) of stably transfected HEK293 cells; blots for calnexin and HSP70-1A; in Fig. 5c cells untreated or pretreated with noribogaine, pifithrin-μ or both.

Assay [2] concerns the target CFP-tagged dDAT-G108Q (Drosophila melanogaster) (UniProt Q7K4Y6). Described as above.

No constants are given. Whether binding was seen depends on the method and setting. In cells and extracts the contact can be indirect. Some entries that bind do so weakly or less than the wild type.

As for HSP70-1A (from UniProt P0DMV8 1-641), the binding result in assay [1] and in assay [2] was “binds” each time.

B1: calnexin (protein, UniProt P27824 21-592)
chain: HDGHDDDVIDIEDDLDDVIEEVEDSKPDTTAPPSSPKVTYKAPVPTGEVYFADSFDRGTLSGWILSKAKKDDTDDEIAKYDGKWEVEEMKESKLPGDKGLVLMSRAKHHAISAKLNKPFLFDTKPLIVQYEVNFQNGIECGGAYVKLLSKTPELNLDQFHDKTPYTIMFGPDKCGEDYKLHFIFRHKNPKTGIYEEKHAKRPDADLKTYFTDKKTHLYTLILNPDNSFEILVDQSVVNSGNLLNDMTPPVNPSREIEDPEDRKPEDWDERPKIPDPEAVKPDDWDEDAPAKIPDEEATKPEGWLDDEPEYVPDPDAEKPEDWDEDMDGEWEAPQIANPRCESAPGCGVWQRPVIDNPNYKGKWKPPMIDNPSYQGIWKPRKIPNPDFFEDLEPFRMTPFSAIGLELWSMTSDIFFDNFIICADRRIVDDWANDGWGLKKAADGAAEPGVVGQMIEAAEERPWLWVVYILTVALPVFLVILFCCSGKKQTSGMEYKKTDAPQPDVKEEEEEKEEEKDKGDEEEEGEEKLEEKQKSDAEEDGGTVSQEEEDRKPKAEEDEILNRSPRNRKPRRE
In the case of B1, the binding result in assay [1] and in assay [2] was “binds” in each case.
